Measurements from paper PMC8326471, “Synthesis and biological evaluation of new pyrazolebenzene-sulphonamides as potential anticancer agents and hCA I and II inhibitors” (Turkish Journal of Chemistry, 2021).
“And” between values parts separate entries of the source, which are not always exact repeats. Equal entries are not always repeated.

Legend:
[1] = system: oral squamous cell carcinoma (HSC-2) cells; assay: Cytotoxicity assay (MTT), HSC-2; format: cell-based, human; settings: selectivity index towards HSC-2
Method: (§1) The cytotoxicity of the compounds 4a - 4j were assayed towards human tumor cell lines [gingival carcinoma (Ca9–22), oral squamous cell carcinoma (HSC-2)] and human normal oral cells [gingival fibroblasts (HGF), and periodontal ligament fibroblasts (HPLF)] as described [42, 54 – 56]. In brief, all cells were cultured in Dulbecco’s modified eagle’s medium (DMEM) supplemented with 10% fetal bovine serum (FBS). The following concentrations of the compounds in dimethylsulfoxide (DMSO) were added to the medium and incubated at 37 ° C for 48 h: 4a - 4j ([…]), melphalan (3.12, 6.25, 12.5, 25. 50, 100, 200 and […]) and 5-FU ([…]). The media that contained the same concentration of DMSO ([…], 0.03125, 0.0625, 0.125, 0.25, 0.5 or 1%) were used as controls since DMSO above 0.25% is cytotoxic. The viable cell numbers were determined by the 3-(4,5-dimethylthiazol-2-yl)-2,5-diphenyltetrazolium bromide (MTT) assay. The CC50 values were determined from dose-response curves.
(§2) Cytotoxicity’s of the compounds 4a - 4j were evaluated towards Ca9–22, HSC-2, HSC-3, and HSC-4 human oral squamous cell carcinoma cell lines as tumor cell lines and HGF, HPLF, and HPC human normal oral cells as nontumor cells (Table 1) according to the procedure in the literature [42, 54 – 56]. 5-Fluorouracil (5-FU) was used as a reference anticancer drug.

[2] = system: HSC-3 oral squamous cell carcinoma cells; assay: Cytotoxicity assay (MTT), HSC-3; format: cell-based, human; settings: selectivity index towards HSC-3
Method: as §1, §2

[3] = system: gingival carcinoma (Ca9-22) cells; assay: Cytotoxicity assay (MTT), Ca9-22; format: cell-based, human; settings: for PSE2 (C/A2)x100: potency selectivity expression, HGF vs Ca9-22; for increase of PSE2 (times) compared to 4a / decrease of PSE2 (times) compared to 4a: relative to 4a; for increase of PSE2 (times) compared to 4b: relative to 4b (4-methoxy); for increase of PSE2 (times) compared to 4c: relative to 4c (3-methoxy); for increase of PSE2 (times) compared to 4d: relative to 4d (2-methoxy); for SI Ca9-22: selectivity index towards Ca9-22; for TS2 (C/A): tumor selectivity, HGF / Ca9-22 CC50
Method: as §1, §2

[4] = system: human oral squamous cell carcinoma cell lines (Ca9-22, HSC-2, HSC-3, HSC-4); assay: Cytotoxicity assay, all tumor cell lines (mean, TS1, PSE1); format: cell-based; settings: for PSE1 (D/B2)×100: potency selectivity expression, all cells; for TS1 (D/B): tumor selectivity, mean non-tumor / mean tumor CC50
Method: as §1, §2
The tumor selectivity (TS1 and TS2) of each compound was calculated as described in previously reported literature procedures and these figures are presented in Table 1. Based on the TS1 values, 4f and 4g which have 2,5 and 2,4-dimethoxy substituents had the highest TS1 values in a series with 22.4 and 22.2, respectively. On the other hand, the 3,4,5-trimethoxy substituted compound 4i (TS1: 19.6) had the […] TS1 value. […] As expected, they were in accordance with the literature findings [16 – 18]. The second calculation (TS2) considered the differences of sensitivity between the malignant (Ca9–22) and non-malignant (HGF) cells derived from the same tissue (gingiva). According to TS2 values obtained, 4i (3,4,5-trimethoxy) had the highest TS2 value of 43.
The desired properties for a lead compound are being both markedly cytotoxic and selectively toxic for tumors. PSE1 reflects general cytotoxicity and selectivity potency of the compound towards all cells used, whereas PSE2 seems more specified since it was considered for the same origin cells. When the compounds tested towards OSCC lines were considered in terms of PSE2 values of the compounds. The best poly-methoxylated compounds were 4i (with 3,4,5-trimethoxy, PSE2 = 461.5) ˃ 4f (with 2,5-dimethoxy, PSE2 = 425.1) ˃ 4g (with 2,4-dimethoxy, PSE2 = 405.4) while the best mono-methoxylated derivative was 4b (with 4-methoxy, PSE2 = 205).

[5] = system: HSC-4 oral squamous cell carcinoma cells; assay: Cytotoxicity assay (MTT), HSC-4; format: cell-based, human; settings: selectivity index towards HSC-4
Method: as §1, §2

OSCC lines = settings: cited from earlier work

## COc1cc(C2=NN(c3ccc(S(N)(=O)=O)cc3)C(c3ccc4c(c3)OCO4)C2)cc(OC)c1OC (stereo not drawn) [4i, 4-[5-(1,3-Benzodioxol-5-yl)-3-(3,4,5-trimethoxyphenyl)-4,5-dihydro-1H-pyrazol-1-yl]benzenesulphonamide]
[1]
  SI HSC-2: 9.2
[2]
  SI HSC-3: 25.2
[3]
  PSE2 (C/A2)x100: 461.5
  increase of PSE2 (times) compared to 4a: 24.0
  increase of PSE2 (times) compared to 4b: 2.3
  increase of PSE2 (times) compared to 4c: 45.7
  increase of PSE2 (times) compared to 4d: 23.7
  SI Ca9-22: 30.6
  TS2 (C/A): 43
[3]; relative to 4f
  increase of PSE2 (times) compared to 4f: 1.1
[3]; relative to 4g
  increase of PSE2 (times) compared to 4g: 1.12
[4]
  PSE1 (D/B2)×100: 134.6
  TS1 (D/B): 19.6
[5]
  SI HSC-4: 42.5

## COc1ccccc1C1=NN(c2ccc(S(N)(=O)=O)cc2)C(c2ccc3c(c2)OCO3)C1 (stereo not drawn) [4d, 4-[5-(1,3-Benzodioxol-5-yl)-3-(2-methoxyphenyl)-4,5-dihydro-1H-pyrazol-1-yl]benzenesulphonamide]
[1]
  SI HSC-2: 2.2
[2]
  SI HSC-3: 3.0
[3]
  PSE2 (C/A2)x100: 19.5
  SI Ca9-22: 2.7
  TS2 (C/A): 2.7
[4]
  PSE1 (D/B2)×100: 17.9
  TS1 (D/B): 2.6
[5]
  SI HSC-4: 2.5

## COc1ccc(C2=NN(c3ccc(S(N)(=O)=O)cc3)C(c3ccc(OC)c(OC)c3)C2)cc1 (stereo not drawn) [4-(5-(3,4-dimethoxyphenyl)-3-(4-methoxyphenyl)-4,5-dihydro-1 H -pyrazol-1-yl)benzenesulphonamide]
OSCC lines; against OSCC, compared with TS 18 of 4b
  TS (first value): 0.7
OSCC lines; against OSCC, compared with TS 28.6 of 4b
  TS (second value): 3.4

## COc1ccc(C2=NN(c3ccc(S(N)(=O)=O)cc3)C(c3ccc4c(c3)OCO4)C2)cc1 (stereo not drawn) [4b, 4-[5-(1,3-Benzodioxol-5-yl)-3-(4-methoxyphenyl)-4,5-dihydro-1H-pyrazol-1-yl]benzenesulphonamide]
[1]
  SI HSC-2: 16.7
[2]
  SI HSC-3: 18.5
[3]
  PSE2 (C/A2)x100: 205 and 205.1
  increase of PSE2 (times) compared to 4a: 10.6
  SI Ca9-22: 21.4
  TS2 (C/A): 28.6
[4]
  PSE1 (D/B2)×100: 108.6
  TS1 (D/B): 18
[5]
  SI HSC-4: 16.5

## COc1ccc(C2CC(c3cccs3)=NN2c2ccc(S(N)(=O)=O)cc2)c(OC)c1OC (stereo not drawn) [compound 34, 4-[5-(2,3,4-trimethoxyphenyl)-3-(thiophen-2-yl)-4,5-dihydro-1 H -pyrazol-1-yl]benzensulphonamide]
OSCC lines; towards OSCC lines
  potency-selectivity expression (PSE): 10.5
  tumor specificity (TS): 9.5

## COc1cccc(C2=NN(c3ccc(S(N)(=O)=O)cc3)C(c3ccc4c(c3)OCO4)C2)c1 (stereo not drawn) [4c, 4-[5-(1,3-Benzodioxol-5-yl)-3-(3-methoxyphenyl)-4,5-dihydro-1H-pyrazol-1-yl]benzenesulphonamide]
[1]
  SI HSC-2: 6.5
[2]
  SI HSC-3: 8.6
[3]
  PSE2 (C/A2)x100: 10.1
  decrease of PSE2 (times) compared to 4a: at half the value
  SI Ca9-22: 6.1
  TS2 (C/A): 2.0
[4]
  PSE1 (D/B2)×100: 39.1
  TS1 (D/B): 6.8
[5]
  SI HSC-4: 6.6

## COc1cc(OC)c(C2=NN(c3ccc(S(N)(=O)=O)cc3)C(c3ccc4c(c3)OCO4)C2)cc1OC (stereo not drawn) [4h, 4-[5-(1,3-Benzodioxol-5-yl)-3-(2,4,5-trimethoxyphenyl)-4,5-dihydro-1H-pyrazol-1-yl]benzenesulphonamide]
[1]
  SI HSC-2: 1.0
[2]
  SI HSC-3: 18.8
[3]
  PSE2 (C/A2)x100: 0.3
  decrease of PSE2 (times) compared to 4a: 64.3
  SI Ca9-22: 1.0
  TS2 (C/A): 1.0
[4]
  PSE1 (D/B2)×100: 0.9
  TS1 (D/B): 1.9
[5]
  SI HSC-4: 18.3

## COc1ccc(C2=NN(c3ccc(S(N)(=O)=O)cc3)C(c3ccc4c(c3)OCO4)C2)c(OC)c1 (stereo not drawn) [4g, 4-[5-(1,3-Benzodioxol-5-yl)-3-(2,4-dimethoxyphenyl)-4,5-dihydro-1H-pyrazol-1-yl]benzenesulphonamide]
[1]
  SI HSC-2: 18.9
[2]
  SI HSC-3: 26.0
[3]
  PSE2 (C/A2)x100: 405.4
  increase of PSE2 (times) compared to 4a: 21.0
  increase of PSE2 (times) compared to 4b: 2.0
  increase of PSE2 (times) compared to 4d: 20.8
  SI Ca9-22: 25.8
  TS2 (C/A): 40.3
[4]
  PSE1 (D/B2)×100: 193.2
  TS1 (D/B): 22.2
[5]
  SI HSC-4: 20.1

## O=c1[nH]cc(F)c(=O)[nH]1 [5-FU, 5-Fluorouracil, reference compound]
[1]
  SI HSC-2: 3.8
[2]
  SI HSC-3: 126.4
[3]
  PSE2 (C/A2)x100: 206
  SI Ca9-22: 44.8
  TS2 (C/A): 45.4
[4]
  PSE1 (D/B2)×100: 17.1
  TS1 (D/B): 13.0
[5]
  SI HSC-4: 78.9

## NS(=O)(=O)c1ccc(N2N=C(c3ccccc3)CC2c2ccc3c(c2)OCO3)cc1 (stereo not drawn) [4a, 4-[5-(1,3-Benzodioxol-5-yl)-3-phenyl-4,5-dihydro-1H-pyrazol-1 yl]benzenesulphonamide]
[1]
  SI HSC-2: 2.0
[2]
  SI HSC-3: 2.5
[3]
  PSE2 (C/A2)x100: 19.3
  SI Ca9-22: 3.1
  TS2 (C/A): 3.3
[4]
  PSE1 (D/B2)×100: 10.3
  TS1 (D/B): 2.3
[5]
  SI HSC-4: 2

## COc1ccc(OC)c(C2=NN(c3ccc(S(N)(=O)=O)cc3)C(c3ccc4c(c3)OCO4)C2)c1 (stereo not drawn) [4f, 4-[5-(1,3-Benzodioxol-5-yl)-3-(2,5-dimethoxyphenyl)-4,5-dihydro-1H-pyrazol-1-yl]benzenesulphonamide]
[1]
  SI HSC-2: 17.4
[2]
  SI HSC-3: 23.8
[3]
  PSE2 (C/A2)x100: 425.1
  increase of PSE2 (times) compared to 4a: 22.0
  increase of PSE2 (times) compared to 4c: 42.1
  increase of PSE2 (times) compared to 4d: 21.8
  SI Ca9-22: 28.2
  TS2 (C/A): 41.2
[4]
  PSE1 (D/B2)×100: 183.6
  TS1 (D/B): 22.4
[5]
  SI HSC-4: 22.8

## COc1cc(C2=NN(c3ccc(S(N)(=O)=O)cc3)C(c3ccc4c(c3)OCO4)C2)ccc1O (stereo not drawn) [4j, 4-[5-(1,3-Benzodioxol-5-yl)-3-(4-hydroxy-3-methoxyphenyl)-4,5-dihydro-1H-pyrazol-1-yl]benzenesulphonamide]
[1]
  SI HSC-2: 2.4
[2]
  SI HSC-3: 2.5
[3]
  PSE2 (C/A2)x100: 26.4
  increase of PSE2 (times) compared to 4c: 2.6
  SI Ca9-22: 3.8
[4]
  PSE1 (D/B2)×100: 13.8
  TS1 (D/B): 3.0
[5]
  SI HSC-4: 3.9
